Measured values reported in patent US20120214748A1, “NOVEL PEPTIDES, PROCESS FOR PREPARATION THEREOF, AND USE THEREOF” (priority 2009, published 2012).

Key:
[1] = target: Thrombin; assay: enzyme inhibition with synthetic substrate
[2] = target: Trypsin; assay: enzyme inhibition with synthetic substrate

- binding [1]: binds
- binding [2]: binds
Binder: GICSRSLPPICIPD (disulphide bridge between the two cysteinyl side chains; open chain) [M2-4G]

Results are given in words; binding and its absence hold for the method and conditions named. Binding calls can cover weak binding; strength is not graded here.
